This passage reports binding results from publication doi:10.1101/2024.08.30.610429.

Results are given in words; binding and its absence hold for the method and conditions named. Binding seen in cells or lysates may run through a third protein. A result given as binding can be weak or reduced; the word gives no strength.

The target of the assay is C-terminal Flag-tagged LAPTM4B (lysosomal protein transmembrane 4 beta) (UniProt Q86VI4). The experiment in a line: co-IP.

With “HA-tagged TGFBR2 (from UniProt P37173 23-567) (receptor)”, the binding entry is recorded as “binds”.
